From EPA's CvTdb concentration-time database
This continues a long series; more values of the same kind are listed elsewhere.

Columns and labels:
Assay in all cases: concentration in plasma after dosing
Mouse [1] = settings: 1 h; dosed: 2-Hydroxy-4-methoxybenzophenone; 50 mg/kg; iv; Male; B6C3F1
Mouse [2] = settings: 16 h; dosed: 2-Hydroxy-4-methoxybenzophenone; 50 mg/kg; iv; Male; B6C3F1
Rat [3] = settings: dosed: 2-Hydroxy-4-methoxybenzophenone, 500 mg/kg, oral, Female, F344
Mouse [4] = settings: 16 h; dosed: 2-Hydroxy-4-methoxybenzophenone; 500 mg/kg; oral; Male; B6C3F1
Mouse [5] = settings: 5 min; dosed: 2-Hydroxy-4-methoxybenzophenone; 500 mg/kg; oral; Male; B6C3F1
Mouse [6] = settings: 2.5 min; dosed: 2-Hydroxy-4-methoxybenzophenone; 500 mg/kg; oral; Female; B6C3F1
Mouse [7] = settings: dosed: 2-Hydroxy-4-methoxybenzophenone, 100 mg/kg, oral, Female, B6C3F1
Mouse [8] = settings: 1 h; dosed: 2-Hydroxy-4-methoxybenzophenone; 500 mg/kg; oral; Female; B6C3F1
Mouse [9] = settings: 5 min; dosed: 2-Hydroxy-4-methoxybenzophenone; 50 mg/kg; iv; Female; B6C3F1
Mouse [10] = settings: 5 min; dosed: 2-Hydroxy-4-methoxybenzophenone; 50 mg/kg; iv; Male; B6C3F1
Rat [11] = settings: dosed: 2-Hydroxy-4-methoxybenzophenone, 250 mg/kg, oral, Female, F344
Rat [12] = settings: dosed: 2-Hydroxy-4-methoxybenzophenone, 500 mg/kg, oral, Male, F344
Rat [13] = settings: dosed: 2-Hydroxy-4-methoxybenzophenone, 8 mg/kg, iv, Female, F344
Mouse [14] = settings: 8 h; dosed: 2-Hydroxy-4-methoxybenzophenone; 50 mg/kg; iv; Female; B6C3F1
Mouse [15] = settings: dosed: 2-Hydroxy-4-methoxybenzophenone, 100 mg/kg, oral, Male, B6C3F1
Mouse [16] = settings: 8 h; dosed: 2-Hydroxy-4-methoxybenzophenone; 500 mg/kg; oral; Male; B6C3F1
Rat [17] = settings: dosed: 2-Hydroxy-4-methoxybenzophenone, 250 mg/kg, oral, Female, F344; remark: listed apart in the source
Mouse [18] = settings: 1.5 h; dosed: 2-Hydroxy-4-methoxybenzophenone; 50 mg/kg; iv; Female; B6C3F1
Rat [19] = settings: dosed: 2-Hydroxy-4-methoxybenzophenone, 250 mg/kg, oral, Female, F344; remark: listed apart in the source
Rat [20] = settings: dosed: 2-Hydroxy-4-methoxybenzophenone, 8 mg/kg, iv, Female, F344; remark: listed apart in the source
Mouse [21] = settings: 2.5 min; dosed: 2-Hydroxy-4-methoxybenzophenone; 500 mg/kg; oral; Male; B6C3F1
Rat [22] = settings: dosed: 2-Hydroxy-4-methoxybenzophenone, 500 mg/kg, oral, Female, F344; remark: listed apart in the source
Mouse [23] = settings: 16 h; dosed: 2-Hydroxy-4-methoxybenzophenone; 50 mg/kg; iv; Male; B6C3F1; remark: listed apart in the source
Mouse [24] = settings: 6 h; dosed: 2-Hydroxy-4-methoxybenzophenone; 250 mg/kg; oral; Female; B6C3F1
Rat [25] = settings: dosed: 2-Hydroxy-4-methoxybenzophenone, 100 mg/kg, oral, Male, F344
Rat [26] = settings: dosed: Perfluorohexanoic Acid, 80 mg/kg, oral, Female, Harlan Sprague Dawley
Rat [27] = settings: 0.75 h; dosed: Perfluorohexanoic Acid; 40 mg/kg; Female; Harlan Sprague Dawley
Rat [28] = settings: dosed: Perfluorohexanoic Acid, 40 mg/kg, Female, Harlan Sprague Dawley
Rat [29] = settings: dosed: Perfluorohexanoic Acid, 160 mg/kg, oral, Female, Harlan Sprague Dawley
Rat [30] = settings: 1 h; dosed: Perfluorohexanoic Acid; 40 mg/kg; Male; F344
Rat [31] = settings: dosed: Perfluorohexanoic Acid, 160 mg/kg, oral, Female, Harlan Sprague Dawley; remark: listed apart in the source
Rat [32] = settings: dosed: Perfluorohexanoic Acid, 40 mg/kg, oral, Male, Harlan Sprague Dawley

O=C(c1ccccc1)c1ccc(O)cc1O [2,4-Dihydroxybenzophenone]
Settings	concentration in plasma [ng/mL]
Mouse [1]	354
Mouse [2]	189
Mouse [4]	156
Mouse [5]	187
Mouse [6]	262
Mouse [8]	267
Mouse [9]	2490
Mouse [10]	5340

Settings	concentration in plasma [ng/mL]
Mouse [7], 0.5 h	182
Mouse [7], 0.75 h	92.2
Mouse [7], 1 h	58
Mouse [7], 1.5 h	79.2
Mouse [7], 4 h	48.4
Mouse [7], 5 min	738
Mouse [7], 6 h	42.1
Rat [3], 2 h	456
Rat [3], 5 min	71.8
Rat [11], 0.5 h	393
Rat [11], 10 h	83

COc1ccc(C(=O)c2ccccc2)c(O)c1 [2-Hydroxy-4-methoxybenzophenone]
Settings	concentration in plasma [ng/mL]
Mouse [15], 0.5 h	53.7
Mouse [15], 0.75 h	52.2
Mouse [15], 1 h	36.8
Mouse [15], 1.5 h	30.2
Mouse [15], 4 h	19.9
Mouse [15], 5 h	18.2
Mouse [15], 5 min	26.1
Mouse [15], 6 h	14.3
Rat [12], 1 h	2350
Rat [12], 8 h	274
Rat [13], 1.5 h	95.6
Rat [13], 8 h	10.2
Rat [17], 2 h	114
Rat [17], 5 min	27.9
Rat [19], 1 h	170
Rat [19], 6 h	16.3
Rat [20], 0.5 h	598
Rat [20], 6 h	15.2
Rat [22], 1 h	2540
Rat [22], 8 h	93.7
Rat [25], 0.5 h	182
Rat [25], 1 h	227
Rat [25], 1.5 h	67.1
Rat [25], 2 h	58.3
Rat [25], 5 h	25.1
Rat [25], 5 min	15.4
Rat [25], 6 h	9.43
Rat [25], 8 h	8.95

Settings	concentration in plasma [ng/mL]
Mouse [14]	27.6
Mouse [16]	18.6
Mouse [18]	463
Mouse [21]	21.7
Mouse [23]	7.13
Mouse [24]	18

O=C(O)C(F)(F)C(F)(F)C(F)(F)C(F)(F)C(F)(F)F [Perfluorohexanoic Acid]
Settings	concentration in plasma [ng/mL]
Rat [26], 5 min	61500
Rat [26], 9 h	711
Rat [28], 0.75 h	29200
Rat [28], 24 h	28.6
Rat [29], 3 h	154000
Rat [29], 5 min	74200
Rat [31], 0.75 h	101000
Rat [31], 12 h	195
Rat [32], 3 h	17600
Rat [32], 5 min	21400

Settings	concentration in plasma [ng/mL]
Rat [27]	28300
Rat [30]	52600
